## Primary screen of a compound library

Each number is a percent effect as filed.
How 0% and 100% were set is not recorded. Most values in the screen are low, and negative values occur.
The compounds are a random part of those screened.

Mtb growth Cornell: 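Whole-cell assay for inhibitors of Mycobacterium tuberculosis growth, labelled Cornell in the record; the read-out is not stated. The concentration is filed as 10 mM, unlikely as a test dose, so the dose is not known. Higher means stronger inhibition (inferred from two other growth screens of the library). About 53,000 compounds were tested under these conditions; 1.7% (about 900) showed 50% or more at least once.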
Mtb heat-shock: 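Assay on Mycobacterium tuberculosis, filed only as a heat shock assay from Cornell; the read-out is not stated. The concentration is filed as 10 mM, unlikely as a test dose, so the dose is not known. Direction is inferred from retests: higher values go with stronger inhibition. Size under these conditions: about 69,000 compounds, about 930 of them at 50% or above in at least one test.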

{"compound": "CCOc1nnc(CN2CCN(CCOC)CC2)s1", "Mtb growth Cornell": -23.92, "Mtb heat-shock": -6.554}
{"compound": "CCn1cc(S(=O)(=O)N2CCC(C)Sc3ccccc32)cn1", "stereo": "stereo not shown", "Mtb heat-shock": -12.57}
{"compound": "Cc1cc(C)n(C2CN(C(=O)CN3C(=O)CSc4ccccc43)C2)n1", "Mtb growth Cornell": 3.012, "Mtb heat-shock": -3.053}
{"compound": "O=C(O)C(F)(F)F.[H][C@@]12CCCO[C@]1([H])[C@H](NC(=O)CC1CC1)CN(Cc1ccc(C)s1)C2", "Mtb growth Cornell": 17.54, "Mtb heat-shock": -25.59}
{"compound": "CCc1nc(C)c(C(=O)NCCNc2ncnc3sccc23)s1", "Mtb growth Cornell": -9.738, "Mtb heat-shock": 7.466}
{"compound": "NC(=O)CCNC(=O)NCC1(c2ccccc2Cl)CCC1", "Mtb growth Cornell": 18.53, "Mtb heat-shock": 4.456}
{"compound": "O=C(O)C(F)(F)F.[H][C@]12CCN(C(=O)c3cscn3)C[C@@]1([H])CN(Cc1cnn(C)c1)C2", "Mtb growth Cornell": -40.9, "Mtb heat-shock": -39.63}
{"compound": "CC1CN(C(=O)c2cccc(OCc3cscn3)c2)CCO1", "stereo": "stereo not shown", "Mtb heat-shock": 4.741}
{"compound": "COc1ccccc1-n1nc(-c2ccco2)n(CC(N)=O)c1=O", "Mtb growth Cornell": 21, "Mtb heat-shock": -3.009}
{"compound": "CC(C)N(C)Cc1noc2c1CN(C(=O)c1ccsc1)CC2", "Mtb growth Cornell": 9.127, "Mtb heat-shock": -6.362}
{"compound": "CC(C(=O)Nc1cc(F)ccc1F)N1CCN(Cc2ncc[nH]2)CC1", "stereo": "stereo not shown", "Mtb growth Cornell": -14.08, "Mtb heat-shock": -3.586}
{"compound": "Cc1c(C2CCCN(C(=O)OC(C)(C)C)C2)n2c(nc1=O)CCC2", "stereo": "stereo not shown", "Mtb growth Cornell": -1.242, "Mtb heat-shock": -1.773}
{"compound": "NS(=O)(=O)CCNC(=O)c1cc2ccccc2nc1N1CCCC1", "Mtb heat-shock": -20.49}
{"compound": "CCN(CC)C(=O)c1ccc(NC(=O)CNc2ccc(Br)cc2F)cc1", "Mtb growth Cornell": -14.15, "Mtb heat-shock": 5.525}
{"compound": "CN(C)CCn1c(=O)n(C)c(=O)c2ccccc21.Cl", "Mtb growth Cornell": -5.403, "Mtb heat-shock": -18.2}
{"compound": "CCOC(=O)COC1CCN(C(C)=O)CC(=O)N(C)c2ccccc21", "stereo": "stereo not shown", "Mtb growth Cornell": 2.736, "Mtb heat-shock": 27.41}
{"compound": "COCC(=O)NC[C@]1(O)CN(Cc2ccc3c(c2)OCCO3)C[C@H]1O", "Mtb growth Cornell": 24.95, "Mtb heat-shock": -6.188}
{"compound": "CC(Cn1ccnc1)NC(=O)C1(c2cccc(Cl)c2)CC1", "stereo": "stereo not shown", "Mtb heat-shock": -21.94}
{"compound": "Cc1nc(C)n(CC2CCCN2CC(=O)Nc2cc(C)on2)n1", "stereo": "stereo not shown", "Mtb growth Cornell": -37.77, "Mtb heat-shock": 4.592}
{"compound": "Cc1csc2c(=O)n3c(nc12)CCN(C(=O)c1ccnn1C)CC3", "Mtb heat-shock": -11.19}
{"compound": "CN(CCO)C(=O)c1coc(CN2CCN(c3ccccc3F)CC2)n1", "Mtb growth Cornell": 5.84, "Mtb heat-shock": -14.19}
{"compound": "CC(=O)N(c1ccc(C)cc1)c1nc(CN2CCCC(C)C2)cs1", "stereo": "stereo not shown", "Mtb growth Cornell": 22.88, "Mtb heat-shock": 1.561}
{"compound": "CC(=O)N1CCc2[nH]cnc2C12CCN(CC1CCOC1)CC2", "stereo": "stereo not shown", "Mtb growth Cornell": -11.83, "Mtb heat-shock": 10.43}
{"compound": "CCCC(C#N)NC(=O)c1cc(Br)c2c(c1)OCCO2", "stereo": "stereo not shown", "Mtb growth Cornell": 14.39, "Mtb heat-shock": -16.48}
{"compound": "O=C(c1ccc(-n2cccn2)nc1)N1CCCC(n2cccn2)C1", "stereo": "stereo not shown", "Mtb heat-shock": -10.56}
{"compound": "Cn1nnnc1SC1CCc2ccccc2NC1=O", "stereo": "stereo not shown", "Mtb growth Cornell": 4.345, "Mtb heat-shock": -3.472}
{"compound": "Cc1nc(C)n(C2CCCN(C(=O)c3c(C)nn4cccnc34)C2)n1", "stereo": "stereo not shown", "Mtb heat-shock": -18.18}
{"compound": "CC(C)(CO)Nc1cc(-c2ccncc2)ncn1", "Mtb growth Cornell": 15.76, "Mtb heat-shock": -10.5}
{"compound": "O=C(Cc1ccccn1)N1CCC(O)(Cn2ccc3ccncc32)CC1", "Mtb growth Cornell": -3.613, "Mtb heat-shock": -19.53}
{"compound": "CC(OCC(F)(F)F)C(=O)Nc1ccc(-n2cncn2)nc1", "stereo": "stereo not shown", "Mtb heat-shock": 4.912}
{"compound": "O=C1CN(C(=O)c2ccc(Cl)cc2)CC(O)CN1Cc1cccs1", "stereo": "stereo not shown", "Mtb growth Cornell": 9.952, "Mtb heat-shock": 16.61}
{"compound": "CCN(Cc1ccc2c(c1)OCO2)Cc1nc(C)no1", "Mtb growth Cornell": 8.285, "Mtb heat-shock": -0.4541}
{"compound": "COc1ccc(-n2nnc(C(=O)NCC3CCCCC3)n2)cc1", "Mtb growth Cornell": 39.57, "Mtb heat-shock": 14.58}

Some entries from above, unchanged:

compound	Mtb growth Cornell	Mtb heat-shock
CCCC(C#N)NC(=O)c1cc(Br)c2c(c1)OCCO2 (stereo not shown)	14.39	-16.48
Cn1nnnc1SC1CCc2ccccc2NC1=O (stereo not shown)	4.345	-3.472
O=C(Cc1ccccn1)N1CCC(O)(Cn2ccc3ccncc32)CC1	-3.613	-19.53

From ChEMBL document CHEMBL3988442, “University of Dundee, Small-Polar-MMV Screening Library” (2021).